From publication PMC6134199 come the findings set out here.

Sequences of proteins named here, by UniProt entry; tags and fusion partners are left off. A change or cut given only in a name is not applied to a line headed by its entry.
UniProt P75811: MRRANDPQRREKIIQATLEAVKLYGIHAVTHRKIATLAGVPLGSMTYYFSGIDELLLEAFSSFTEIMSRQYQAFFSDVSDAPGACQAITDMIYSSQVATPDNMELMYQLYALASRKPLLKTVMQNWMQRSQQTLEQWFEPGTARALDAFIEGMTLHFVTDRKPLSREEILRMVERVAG
UniProt P0A8W0: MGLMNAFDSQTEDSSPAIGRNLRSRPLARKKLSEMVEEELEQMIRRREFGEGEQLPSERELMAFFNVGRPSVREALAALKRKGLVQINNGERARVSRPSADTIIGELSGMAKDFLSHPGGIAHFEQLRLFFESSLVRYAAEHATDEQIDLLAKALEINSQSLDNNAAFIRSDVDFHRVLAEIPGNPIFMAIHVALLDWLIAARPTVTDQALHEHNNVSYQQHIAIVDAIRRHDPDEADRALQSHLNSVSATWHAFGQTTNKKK
UniProt P67660: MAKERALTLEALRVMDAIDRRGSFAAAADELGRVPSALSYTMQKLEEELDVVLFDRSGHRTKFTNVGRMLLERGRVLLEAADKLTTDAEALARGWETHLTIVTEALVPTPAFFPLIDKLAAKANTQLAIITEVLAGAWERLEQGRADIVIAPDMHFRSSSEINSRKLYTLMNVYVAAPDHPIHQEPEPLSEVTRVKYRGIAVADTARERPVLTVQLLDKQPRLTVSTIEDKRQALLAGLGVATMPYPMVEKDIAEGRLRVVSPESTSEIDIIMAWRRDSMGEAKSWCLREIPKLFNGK

The exact form of at least one protein or probe is not confirmed. For part of these data: Negatives hold for the conditions tested. For part of these data: Tags and fusion partners may be left off the protein sequences shown. For part of these data: A weaker result is weaker than the reference pair of the same experiment.

Holding throughout (assay): EMSA
In series [1] the target is T1, BtsR (Escherichia coli K-12 W3110 type A) (UniProt P0AFT5).
T1 sequence (looked up, limits assumed): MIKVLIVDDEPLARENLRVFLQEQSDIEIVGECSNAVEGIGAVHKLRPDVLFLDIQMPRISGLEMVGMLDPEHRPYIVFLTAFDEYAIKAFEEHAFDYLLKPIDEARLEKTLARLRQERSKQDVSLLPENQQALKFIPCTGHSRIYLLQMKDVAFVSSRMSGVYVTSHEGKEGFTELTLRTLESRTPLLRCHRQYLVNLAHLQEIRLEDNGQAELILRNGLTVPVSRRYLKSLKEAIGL
The conditions noted are these: 0.5 pmol each FITC probe + 20 pmol TF (Fig 4: 0-8 pmol) in 10 ul DNA-binding buffer (composition not given, ref 38), 37 C, 20 min, PAGE with mixed probes; recombinant protein; protein details: His; label: FITC.

Series [2] concerns the target RcdA (Escherichia coli K-12 W3110 type A) (UniProt P75811). The conditions noted are these: 0.5 pmol each FITC probe + 20 pmol TF (Fig 4: 0-8 pmol) in 10 ul DNA-binding buffer (composition not given, ref 38), 37 C, 20 min, PAGE with mixed probes, recombinant protein, protein details: His, label: FITC.
Series [3] has as its target T2, QseF (Escherichia coli K-12 W3110 type A) (UniProt P0AFU4).
T2 sequence (looked up, limits assumed): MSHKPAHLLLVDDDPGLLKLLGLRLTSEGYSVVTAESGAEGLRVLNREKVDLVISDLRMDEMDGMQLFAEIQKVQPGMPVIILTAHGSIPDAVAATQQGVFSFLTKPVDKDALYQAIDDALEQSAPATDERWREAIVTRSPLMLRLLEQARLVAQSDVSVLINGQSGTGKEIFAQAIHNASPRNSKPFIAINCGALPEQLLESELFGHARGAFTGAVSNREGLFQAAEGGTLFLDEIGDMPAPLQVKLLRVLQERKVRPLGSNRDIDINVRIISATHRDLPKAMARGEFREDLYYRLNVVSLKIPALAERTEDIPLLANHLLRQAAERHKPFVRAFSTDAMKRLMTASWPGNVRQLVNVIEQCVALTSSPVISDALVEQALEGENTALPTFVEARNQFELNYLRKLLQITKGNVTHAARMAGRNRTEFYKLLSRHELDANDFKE
The following applies: 0.5 pmol each FITC probe + 20 pmol TF (Fig 4: 0-8 pmol) in 10 ul DNA-binding buffer (composition not given, ref 38), 37 C, 20 min, PAGE with mixed probes; recombinant protein; protein details: His; label: FITC.

Series [4] has as its target T3, UlaR (Escherichia coli K-12 W3110 type A) (UniProt P0A9W0).
T3 sequence (looked up, limits assumed): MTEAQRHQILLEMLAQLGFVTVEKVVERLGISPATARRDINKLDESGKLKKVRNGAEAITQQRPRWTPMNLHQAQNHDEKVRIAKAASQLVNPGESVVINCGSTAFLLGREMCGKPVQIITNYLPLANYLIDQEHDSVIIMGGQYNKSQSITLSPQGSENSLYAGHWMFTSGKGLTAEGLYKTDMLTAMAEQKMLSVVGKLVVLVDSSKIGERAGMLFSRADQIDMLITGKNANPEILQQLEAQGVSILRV
The following applies: 0.5 pmol each FITC probe + 20 pmol TF (Fig 4: 0-8 pmol) in 10 ul DNA-binding buffer (composition not given, ref 38), 37 C, 20 min, PAGE with mixed probes; recombinant protein; protein details: His; label: FITC.

Series [5] has as its target T4, CadC (Escherichia coli K-12 W3110 type A) (UniProt P23890).
T4 sequence (looked up, limits assumed): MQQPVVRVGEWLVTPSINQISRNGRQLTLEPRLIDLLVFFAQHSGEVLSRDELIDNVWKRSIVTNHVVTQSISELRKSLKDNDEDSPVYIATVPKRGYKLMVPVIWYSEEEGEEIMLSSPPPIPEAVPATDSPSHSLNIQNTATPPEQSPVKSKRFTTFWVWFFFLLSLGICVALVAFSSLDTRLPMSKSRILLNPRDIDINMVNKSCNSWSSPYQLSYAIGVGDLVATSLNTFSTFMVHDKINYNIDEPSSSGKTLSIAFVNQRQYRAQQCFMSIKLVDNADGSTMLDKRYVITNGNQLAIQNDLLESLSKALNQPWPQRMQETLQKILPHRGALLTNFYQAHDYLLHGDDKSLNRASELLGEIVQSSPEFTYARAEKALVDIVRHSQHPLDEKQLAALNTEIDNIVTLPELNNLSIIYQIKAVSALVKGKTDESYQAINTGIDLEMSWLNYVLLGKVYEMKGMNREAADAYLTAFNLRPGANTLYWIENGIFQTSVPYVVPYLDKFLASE
The following applies: 0.5 pmol each FITC probe + 20 pmol TF (Fig 4: 0-8 pmol) in 10 ul DNA-binding buffer (composition not given, ref 38), 37 C, 20 min, PAGE with mixed probes; recombinant protein; protein details: His; label: FITC.

Series [6] concerns the target T5, ArcA (Escherichia coli K-12 W3110 type A) (UniProt P0A9Q1).
T5 sequence (looked up, limits assumed): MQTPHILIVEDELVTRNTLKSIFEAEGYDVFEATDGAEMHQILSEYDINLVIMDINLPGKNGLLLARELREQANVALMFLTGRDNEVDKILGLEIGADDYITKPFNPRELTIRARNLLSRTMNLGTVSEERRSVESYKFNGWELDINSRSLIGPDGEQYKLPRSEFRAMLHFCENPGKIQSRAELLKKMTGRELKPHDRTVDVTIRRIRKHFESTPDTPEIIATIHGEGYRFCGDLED
The following applies: 0.5 pmol each FITC probe + 20 pmol TF (Fig 4: 0-8 pmol) in 10 ul DNA-binding buffer (composition not given, ref 38), 37 C, 20 min, PAGE with mixed probes, recombinant protein, protein details: His, label: FITC.

Series [7] has as its target NanR (Escherichia coli K-12 W3110 type A) (UniProt P0A8W0). The following applies: 0.5 pmol each FITC probe + 20 pmol TF (Fig 4: 0-8 pmol) in 10 ul DNA-binding buffer (composition not given, ref 38), 37 C, 20 min, PAGE with mixed probes; recombinant protein; protein details: His; label: FITC.
Series [8] has as its target YhaJ (Escherichia coli K-12 W3110 type A) (UniProt P67660). The conditions noted are these: 0.5 pmol each FITC probe + 20 pmol TF (Fig 4: 0-8 pmol) in 10 ul DNA-binding buffer (composition not given, ref 38), 37 C, 20 min, PAGE with mixed probes; recombinant protein; protein details: His; label: FITC.
Series [9] deals with T6, GlpR (Escherichia coli K-12 W3110 type A) (UniProt P0ACL0).
T6 sequence (looked up, limits assumed): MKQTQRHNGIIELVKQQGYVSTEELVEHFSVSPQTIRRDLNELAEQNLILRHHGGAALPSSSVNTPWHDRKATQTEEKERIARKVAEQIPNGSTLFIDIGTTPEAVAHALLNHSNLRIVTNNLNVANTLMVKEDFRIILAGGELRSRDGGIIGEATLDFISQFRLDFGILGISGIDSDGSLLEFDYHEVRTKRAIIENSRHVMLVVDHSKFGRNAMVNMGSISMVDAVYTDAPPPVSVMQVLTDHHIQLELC
The following applies: 0.5 pmol each FITC probe + 20 pmol TF (Fig 4: 0-8 pmol) in 10 ul DNA-binding buffer (composition not given, ref 38), 37 C, 20 min, PAGE with mixed probes; recombinant protein; protein details: His; label: FITC.

The subject of series [10] is YiuA (Escherichia coli K-12 W3110 type A). The following applies: 0.5 pmol each FITC probe + 20 pmol TF (Fig 4: 0-8 pmol) in 10 ul DNA-binding buffer (composition not given, ref 38), 37 C, 20 min, PAGE with mixed probes; recombinant protein; protein details: His; label: FITC.
Setting [11] is: 10 mM acetate, increased binding.
The mark [12] stands for this setting: 10 mM acetyl phosphate (AcP), decreased binding.

On to “ATTATAAAGATTTGTAAATATAACCGTCTCCGGTATGTTGCCTGAGGCGGTTTTTTTGTCTCTAACGTGCGGAAAAATTTGTTCCTCTTCACATTTTTTGTACAACCGACATGCCCGTGTAGCTCACAAATATGACAGTGGCGTGAATTTTGCGCATTGACGGCAGTTATGATTCGCGGTATTGCTTAACTGTGATTGCACATTTAGTAATCACTGTTTTCTTTTCCACCAGAAACCAGTATGAGGGAAACGAGGC (double strand) [rmf promoter probe (256 bp)]”, for which the binding result in series [1], in series [2] (setting [11]), in series [2] (no effector), in series [3], in [4] and in series [5] was “binds” throughout. For the same sequence, the binding result in series [6] (setting [12]) was “binds more weakly”; in [6] (no effector) it was “binds”; in series [7] it was “binds”; in [8] it was “binds”; in series [9], “binds”; in series [10], “binds”.
Consider “CGTACCGACCCCATATCGTGACGCCGCTGCTGTTGTACTAACCAAACAGGTTCCCCCTGCCATTCGCCGATTTGTAGTGCGCGCTGACCCACAAGATCGAAATTTGCCGCTTCGCCATATGGCAATTCTCCCTTCGGCAACCATAATTTTTGTTCATGGCTGACGACCCACCAGCCGTGATCTAATTTTTCAATTATACGATCCATAGCTCTTGCACTACCTTTGCATCACTGGCATGTTTAACATGGTTTTTACATTTCTCACTGAGCAGTTTTTGAATACAAACTTGCGGAGTCAATC (double strand) [rsd promoter probe (300 bp)]”, for which the binding result in [1] is reported as “no binding”; in series [2] (setting [11]) it was “binds”; in [2] (no effector), “binds”; in [3], “no binding”; in series [4], “binds”; in series [5] it was “binds”. Further, the binding result in series [6] (setting [12]) is reported as “binds more weakly”; in [6] (no effector), “binds”; in [7], “binds”; in series [8], “no binding”; in series [9] it was “no binding”; in series [10], “no binding”.
